Data: EP3909969A1, “PEPTIDE FOR HYDROGEL FORMATION” (Freie Universität Berlin, priority 2020, dated 2021)
Part of at least one peptide drawing is inferred or uncertain, most often the ends.

Assays:
[1] = Oscillatory rheology of peptide hydrogels (frequency sweeps, fractional Kelvin-Voigt fit); format: physicochemical; conditions: for E2^(1) static load: T1 = 25°C; for E2^(2) static load: T2 = 37°C
[2] = Small angle neutron scattering (SANS) of peptide hydrogels; format: physicochemical; conditions: 25°C; for n Porod exponent: equation 5
[3] = c 0.15 wt%, Pedersen-Schurtenberger model
[4] = c 0.3 wt%, Pedersen-Schurtenberger model
[5] = c 0.5 wt%, Pedersen-Schurtenberger model

CC(C)C[C@H](NC(=O)[C@H](CCC(=O)O)NC(=O)[C@H](CCCCN)NC(=O)[C@H](CCCCN)NC(=O)[C@H](CC(C)C)NC(=O)[C@H](C)NC(=O)[C@H](C)NC(=O)[C@H](CC(C)C)NC(=O)[C@H](CCC(=O)O)NC(=O)[C@H](CCCCN)NC(=O)[C@H](CCCCN)NC(=O)[C@H](CC(C)C)NC(=O)[C@H](C)NC(=O)[C@H](C)NC(=O)[C@H](CC(C)C)NC(=O)[C@H](CCC(=O)O)NC(=O)[C@H](CCCCN)NC(=O)[C@H](CCCCN)NC(=O)[C@H](CC(C)C)NC(=O)[C@H](C)NC(=O)[C@H](C)NC(=O)[C@H](CC(C)C)NC(=O)[C@H](CCC(=O)O)NC(=O)[C@H](CCCCN)NC(=O)[C@H](CCCCN)NC(=O)[C@H](CC(C)C)NC(=O)c1ccccc1N)C(=O)O [hFF03]
E2^(1) static load ([1]; c 0.15 wt%): 0.29 Pa
E2^(2) static load ([1]; c 0.15 wt%): 0.45 Pa
E2^(1) static load ([1]; c 0.30 wt%): 3.65 Pa
E2^(2) static load ([1]; c 0.30 wt%): 6.00 Pa
E2^(1) static load ([1]; c 0.50 wt%): 95.20 Pa
E2^(2) static load ([1]; c 0.50 wt%): 57.24 Pa
Lp persistence length [2, 3]: 9.20 nm
Rcs cross-sectional radius [2, 3]: 0.96 nm
n Porod exponent ([2]; c 0.15 wt%): 2.61
Rcs cross-sectional radius ([2]; c 0.15 wt%, modified Guinier approximation (equation 4)): 1.01 nm
Lp persistence length [2, 4]: 13.54 nm
Rcs cross-sectional radius [2, 4]: 0.99 nm
n Porod exponent ([2]; c 0.3 wt%): 2.53
Rcs cross-sectional radius ([2]; c 0.3 wt%, modified Guinier approximation (equation 4)): 1.04 nm
Lp persistence length [2, 5]: 9.81 nm
Rcs cross-sectional radius [2, 5]: 1.14 nm
n Porod exponent ([2]; c 0.5 wt%): 2.79
Rcs cross-sectional radius ([2]; c 0.5 wt%, modified Guinier approximation (equation 4)): 1.30 nm
